Laboratory results as given in US20040086535A1, “Novel antiviral acitivities of primate theta defensins and mammalian cathelicidins” (priority 2001, published 2004).
Not every detail of the peptide structures is certain; ends, links or a residue may be inferred. No end group written: not given here.

Assay: % helicity (circular dichroism)
Assay type: physicochemical
Conditions: for % helicity in Phos. Buffer: phosphate buffer; for % helicity in phosphate buffer + 40% TFE: phosphate buffer + 40% TFE (parenthetical value)

Substance | % helicity in Phos. Buffer | % helicity in phosphate buffer + 40% TFE
KNLRRIIRKIIHIIKKYG [Ov-2, KNLRRIIRKIIHIIKKYG] | 27.2% | 99.2%
LRRIIRKIIHIIKK-NH2 [Ov-3, LRRIIRKIIHIIKK-NH2] | 14.7% | 66.3%
